# Results as given in PubChem BioAssay AID485353 (National Center for Advancing Translational Sciences (NCATS), 2010).
# About 610 (0.18%) of roughly 330,000 compounds were called active. The inconclusive results got no clear call from the source; some entries with a clear call stand among them for comparison. The call rests on the fitted dose curve. Potencies beside an inconclusive call are fits to weak or partial responses and may not hold up.
# Assay: qHTS of Yeast-based Assay for SARS-CoV PLP; further: nearly all actives have a fitted effect of over 55% in size; on activity, positive = growth rescue: 0% is about no effect
# Conditions: S. cerevisiae expressing SARS-CoV PLpro; Potency: growth rescue; activity, positive = growth rescue: at 32.9 µM (top of the series)
# Potency means the concentration at half of the fitted maximal effect.
Compound,"activity, positive = growth rescue",Potency
O=C(CSc1cccc[n+]1[O-])Nc1ccc2c(c1)OCO2,inactive: -0.117%,
O=C(Cc1ccccc1F)c1ccc(O)cc1O,inactive: 2.3%,
CC(=O)c1ccccc1C(=O)N1CCC(n2nccc2NC(=O)C2CC2)CC1,,"inconclusive: 10 µM [activator, single point]"
O=C(CC(Nc1ccc(F)cc1)c1ccccc1)c1ccccc1 (centres undefined),,active: 3.16 µM
COc1cccc(/C=N/Nc2ncnc3scc(-c4ccccc4)c23)c1O,,"inconclusive: 3.98 µM [activator, single point]"
CCOC(=O)C1=C(C)N(C)C(=S)NC1c1ccc(Cl)cc1Cl (centres undefined),,"inconclusive: 8.91 µM [activator, partial curve, poor fit]"
CCn1cc(/C=C(\NC(=O)c2cc(OC)c(OC)c(OC)c2)C(=O)NCCN2CCOCC2)c2ccccc21,,"inconclusive: 0.794 µM [activator, full curve]"
CC1CCC/C(=N\NC(=O)COc2ccccc2Cl)C1 (centres undefined),,"inconclusive: 20 µM [activator, single point]"
O=C(CSc1ccc(-c2ccccn2)nn1)NCc1ccc(F)cc1,,"inconclusive: 10 µM [activator, partial curve]"
O=c1c2ccccc2nnn1CSc1nc2ccccc2c(=O)n1Cc1ccco1,,"inconclusive: 3.55 µM [activator, single point]"
NS(=O)(=O)c1cccc(NS(=O)(=O)c2ccc3ccccc3c2)c1,inactive: -1.99%,
Cc1ccc(Nc2nnc(SCC(=O)Nc3cccc(S(=O)(=O)N4CCCCC4)c3)s2)cc1,,"inconclusive: 22.4 µM [activator, single point]"
Cc1ccccc1-c1nc(CS(=O)(=O)CC(=O)N2CCN(C)CC2)c(C)o1,inactive: 0.373%,
CCSC1=NCN(CCCC(=O)O)CN1,,"inconclusive: 4.47 µM [activator, single point]"
C/C(CCC12CC3CC(CC(C3)C1)C2)=N\NC(N)=S,,"inconclusive: 20 µM [activator, single point]"
CCOc1ccc(NC(=O)NNC(=O)c2cc3ccccc3cc2O)cc1,,"inconclusive: 17.8 µM [activator, partial curve, poor fit]"
O=C(N/N=C/c1cc([N+](=O)[O-])cc([N+](=O)[O-])c1O)/C(=C\c1cccs1)NC(=O)c1ccccc1,,"inconclusive: 14.1 µM [activator, partial curve, poor fit]"
CCc1ccccc1NC(=S)N1CCN(c2ccccc2F)CC1,,"inconclusive: 10 µM [activator, single point]"
CCCCNC(=S)N/N=C/c1ccc(C)s1,,"inconclusive: 12.6 µM [activator, partial curve]"
Cc1ccc(C(=O)Nc2ccccc2N2CCCCC2)o1,inactive: -1.32%,
O=c1[nH]c(=O)n(Cc2ccco2)c(O)c1C=NCCN1CCOCC1,,"inconclusive: 12.6 µM [activator, single point]"
COc1cccc(-c2nc(N)nc(SC)c2C#N)c1,inactive: 0.138%,
O=C(CSc1nnc(-c2cccnc2)n1Cc1ccco1)c1ccccc1,inactive: -0.196%,
Cc1cc(NC(=O)C(C)SCC(=O)N(C)Cc2ccccc2F)no1 (centres undefined),inactive: -1.3%,
O=C(/C=C/c1ccc(F)cc1)NC(=S)Nc1ccccc1C(=O)NC1CCCCC1,inactive: 3.19%,

# Single values from the entries so far.
# CCc1ccccc1NC(=S)N1CCN(c2ccccc2F)CC1 – Potency: inconclusive: 10 µM [activator, single point]
# O=c1[nH]c(=O)n(Cc2ccco2)c(O)c1C=NCCN1CCOCC1 – Potency: inconclusive: 12.6 µM [activator, single point]
# CCn1cc(/C=C(\NC(=O)c2cc(OC)c(OC)c(OC)c2)C(=O)NCCN2CCOCC2)c2ccccc21 – Potency: inconclusive: 0.794 µM [activator, full curve]
# O=C(CSc1ccc(-c2ccccn2)nn1)NCc1ccc(F)cc1 – Potency: inconclusive: 10 µM [activator, partial curve]

# The list continues.

Compound,"activity, positive = growth rescue",Potency
CCCOc1cccc(OCC(=O)Nc2nc3ccccc3[nH]2)c1,,"inconclusive: 0.398 µM [activator, full curve, poor fit]"
COc1cc(/C=N/NC(=O)c2cccnc2)cc(Br)c1O,,"inconclusive: 2.82 µM [activator, full curve]"
O=C(CSc1ncnc2scc(-c3ccc(F)cc3)c12)c1ccc2c(c1)OCCO2,inactive: -7.29%,
Cn1cccc1/C=N/NC(N)=S,,active: 10 µM
COc1ccc(CN2CCN(Cc3cccc(F)c3)CC2)cc1OC,inactive: -2.9%,
CC(C#N)OC(=O)c1cccnc1SCC(=O)Nc1ccc2c(c1)OCO2 (centres undefined),inactive: -0.388%,
O=C(NNC(=O)c1cc2cc(Br)ccc2oc1=O)c1ccc(O)cc1O,,"inconclusive: 3.98 µM [activator, full curve]"
O=C(NCc1nnc(SCC(=O)N2CCCCC2)o1)c1c(F)cccc1Cl,,"inconclusive: 3.98 µM [activator, single point]"
COc1cc(NC(=O)COc2ccc(Br)cc2)ccc1NC(=O)C(C)C,inactive: -1.76%,
Cn1c(=O)oc2cc(S(=O)(=O)NCCN3CCc4ccccc4C3)ccc21,,"inconclusive: 10 µM [activator, partial curve]"
COc1ccc(CN2CCNC(=O)C2CC(=O)NC2CCCCCC2)cc1C (centres undefined),,"inconclusive: 20 µM [activator, single point]"
Cn1c(SCC(=O)Nc2ccc(F)cc2)nnc1-c1cccnc1,inactive: -0.712%,
Cc1nnc(NC(=O)C2CCCN2C(=O)Nc2ccccc2)s1 (centres undefined),inactive: -1.41%,
NC1=NC(c2ccccc2Cl)n2c(nc3ccccc32)N1 (centres undefined),,"inconclusive: 2.82 µM [activator, single point]"
COc1ccc(CNC(=O)CN2C(=O)CCSc3ccc(S(=O)(=O)N4CCCC4)cc32)cc1,inactive: -1.87%,
O=C(CNC(=O)c1sc2ccccc2c1Cl)NCc1ccccc1,,"inconclusive: 12.6 µM [activator, single point]"
Cc1ccc(NC(=O)CSc2n[nH]c(C)c2[N+](=O)[O-])cc1C,inactive: -25.4%,
COc1ccc(S(=O)(=O)N2CCN(CC(O)COc3ccc(C#N)cc3)CC2)cc1OC (centres undefined),inactive: -0.309%,
COc1ccc(-c2ccc(-c3noc(-c4ccccc4)n3)c(OC)n2)cc1,,"inconclusive: 11.2 µM [activator, partial curve]"
Cc1occc1C(=O)N1CCCC(N2CCN(c3cccc(Cl)c3)CC2)C1 (centres undefined),,"inconclusive: 20 µM [activator, single point]"
CCc1nnc(NC(=O)c2ccc(S(=O)(=O)N(CC)Cc3ccccc3)cc2)o1,,"inconclusive: 14.1 µM [activator, single point]"
O=C(CC(NC(=O)c1ccccc1)c1ccccc1)Nc1cccc2ccccc12 (centres undefined),,"inconclusive: 14.1 µM [activator, single point]"
CNC(=O)c1ccsc1NC(=O)c1ccc(S(=O)(=O)N2CCCc3ccccc32)cc1,inactive: -29.4%,
CC(C)C(=O)Nc1cccc(C(=O)Nc2nnc(C(C)(C)C)s2)c1,,"inconclusive: 20 µM [activator, single point]"
N#Cc1c(-c2ccc(F)cc2)cc(C2CC2)nc1SCC(=O)c1cccs1,,"inconclusive: 3.16 µM [activator, full curve, poor fit]"

Compound,"activity, positive = growth rescue",Potency
Cc1ccc2ccc(C(Nc3cccc(C(F)(F)F)c3)c3cccnc3)c(O)c2n1 (centres undefined),,active: 10 µM
O=C1c2ccccc2NC(c2ccc([N+](=O)[O-])cc2)N1O (centres undefined),,"inconclusive: 10 µM [activator, partial curve]"
Cc1ccc(NC(=O)COC(=O)CCc2nc3ccccc3n2-c2ccccc2)c(C)c1,,"inconclusive: 10 µM [activator, single point]"
Cc1ccc(CNC(=O)C2CCCN2C(=O)Nc2ccc(F)cc2)cc1 (centres undefined),inactive: 10.6%,
COc1cccc(-n2c(N)c(C(=O)Nc3c(C)n(C)n(-c4ccccc4)c3=O)c3nc4ccccc4nc32)c1,inactive: -0.267%,
C=C1C2(C(=O)Nc3nccs3)CCC(C2)C1(C)C (centres undefined),,"inconclusive: 3.55 µM [activator, single point]"
Cc1ccc(C=C2C(=O)c3ccccc3C2=O)o1,,"inconclusive: 20 µM [activator, single point]"
O=C(COc1ccccc1[N+](=O)[O-])OCCCOC(=O)COc1ccccc1[N+](=O)[O-],,"inconclusive: 2.82 µM [activator, single point]"
CCc1c(-c2n[nH]c(=S)n2Cc2ccccc2)csc1C,,"inconclusive: 10 µM [activator, single point]"
S=C(NCCc1ccccc1)Nc1ccccn1,,active: 5.62 µM
Cc1nc(C(F)(F)F)nc(Nc2ccc(N=Nc3ccccc3)cc2)c1C#N,,"inconclusive: 1.41 µM [activator, partial curve]"
O=C(c1ccc(CS(=O)(=O)c2ccccc2)o1)N1CCN(c2ncccn2)CC1,inactive: -1.76%,
COCCC1CCCCN1C(=O)c1cc(COc2ccc(-n3cncn3)cc2)on1 (centres undefined),,"inconclusive: 3.55 µM [activator, single point]"
CC(C)(C)NC(=O)COC(=O)/C=C/c1ccc(F)cc1,,"inconclusive: 20 µM [activator, single point]"
CC(=O)c1ccc(N2CCN(S(=O)(=O)c3ccc4c(c3)NC(=O)CO4)CC2)cc1,inactive: -7.22%,
Cc1c(Cl)cnc(NC(=O)COC(=O)c2nn(C)c(=O)c3ccccc23)c1Cl,,"inconclusive: 5.62 µM [activator, partial curve]"
COc1ccc(C(N)=O)cc1NC(=O)c1cccc(F)c1,,"inconclusive: 11.2 µM [activator, single point]"
COc1cccc(COCC(O)Cn2cnc3cc(C)c(C)cc32)c1 (centres undefined),inactive: -4.66%,
COc1cc(CC(=O)Nc2cccc(SC)c2)cc(OC)c1OC,inactive: -1.2%,
CCOC(=O)c1sc(=S)n(C)c1NC(=O)c1ccccc1Cl,,active: 22.4 µM
CCOC(=O)[C@H]1[C@H]2COc3ccc(Br)cc3[C@@H]2N2C(=O)CN(CC3CCCO3)C(=O)[C@@]12C (some centres undefined),,"inconclusive: 11.2 µM [activator, single point]"
O=C(NCCCn1ccnc1)c1cc2nc(-c3ccc(Br)cc3)cc(C(F)(F)F)n2n1,inactive: -3.94%,
COc1ccc(CN2C3CCCC2CC(NC(=O)c2cccc(F)c2)C3)cc1 (centres undefined),,"inconclusive: 2 µM [activator, single point]"
CC(NC(=O)COC(=O)CNC(=O)c1ccccc1Cl)C1CC2CCC1C2 (centres undefined),,"inconclusive: 4.47 µM [activator, single point]"
